Measurements from PubChem BioAssay AID504847 (National Center for Advancing Translational Sciences (NCATS), 2011).
Where “and” joins values, the source holds several entries; their conditions need not be identical. Equal values may be shown once. Out of some 400,000 compounds screened, about 3,700 (0.93%) were called active. Inconclusive means that the source gave no clear call. Such entries were picked first, then a sample of the others. Calls follow the shape of the dose curve; as a rule, active = well fitted inhibition curve with a large enough effect; inconclusive = small, poorly fitted or top-dose-only effect, or another doubt; inactive = no such curve, though single readings can be large or run the other way. A potency beside an inconclusive call is a rough fit, not a confirmed value.

Chains of the proteins cited; added tags and fusions are not shown. Lines headed by an entry give the natural chain unless they say otherwise; changes in a name come on top.
UniProt P11473: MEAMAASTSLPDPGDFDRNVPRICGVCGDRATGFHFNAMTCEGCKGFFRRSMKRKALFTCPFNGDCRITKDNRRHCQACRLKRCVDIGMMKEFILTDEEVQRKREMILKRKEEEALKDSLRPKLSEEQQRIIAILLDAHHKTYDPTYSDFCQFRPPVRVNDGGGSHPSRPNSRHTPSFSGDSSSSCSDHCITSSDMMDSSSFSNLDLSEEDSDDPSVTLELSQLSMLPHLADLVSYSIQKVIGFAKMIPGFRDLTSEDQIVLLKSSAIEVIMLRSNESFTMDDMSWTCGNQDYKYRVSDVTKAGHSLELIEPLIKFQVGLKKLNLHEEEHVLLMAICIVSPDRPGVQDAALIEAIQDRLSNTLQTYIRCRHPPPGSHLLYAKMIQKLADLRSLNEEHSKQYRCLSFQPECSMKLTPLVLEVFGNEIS

Each compound was assayed against Vitamin D3 receptor (Homo sapiens) (UniProt P11473) (assay: Inhibitors of the vitamin D receptor (VDR): qHTS). Conditions: VDR-SRC2-3 peptide fluorescence polarization, 2 h; max response, negative = inhibition: hits give low values.
Summary of the method: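 Fluorescence polarization assay of small-molecule disruption of VDR binding to coregulator peptide SRC2-3. Compounds and controls pin-transferred, then read after 2 h incubation at ambient room temperature.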
% is scaled to controls: 0 for no effect and ±100 for the full control effect; potency is read from the fitted curve at half-maximal effect.

SMILES	Potency	max response, negative = inhibition
CC1(C)CC(=O)C2=C(C1)OC1=C(C(=O)CC(C)(C)C1)C2c1ccc(O)cc1O	active: 8.91 µM	–
CCCCCC(=O)NC(=S)NNC(=O)CC	inconclusive: 79.4 µM [inhibitor, single point]	–
COc1ccccc1-c1cncnc1NCc1ccccc1	inconclusive: 35.5 µM [inhibitor, partial curve]	–
CC(=O)Nc1ccc(/C=N/NC(N)=S)cc1	inconclusive: 79.4 µM [inhibitor, single point]	–
CCc1nnc(NC(=O)c2nc(S(=O)(=O)Cc3cccc(C)c3)ncc2Cl)s1	active: 11.2 µM and active: 12.6 µM	–
O=[N+]([O-])c1ccc2oc(-c3ccccc3)nc2c1	–	inactive: -9.93%
Cc1sc2nc(CSCC(=O)NC3CCCCC3)[nH]c(=O)c2c1C	inconclusive: 89.1 µM [inhibitor, single point]	–
O=C1O/C(=C/Br)CCC1c1cccc2ccccc12 (stereo not given)	active: 17.8 µM	–
CCc1ccc(N2CC(C(=O)Nc3ccc4c(c3)OCCO4)CC2=O)cc1 (stereo not given)	–	inactive: 11.6%
S=C(NCCc1ccccc1)N1CCn2cccc2C1c1ccncc1 (stereo not given)	inconclusive: 89.1 µM [inhibitor, single point]	–
COc1ccc(NC(=O)CSc2c3c(nc4cc(Cl)ccc24)CCCC3)cc1OC	inconclusive: 70.8 µM [inhibitor, partial curve, poor fit]	–
Cc1c(/C=N/n2cnnc2)c2ccccc2n1CCOc1ccc(Cl)cc1	–	inactive: -4.64%
CC1(C)C=C2C(=NN(c3ccccc3)C(N)=C2C#N)CO1	inconclusive: 12.6 µM [inhibitor, partial curve]	–
COc1c2c(c(CCC(=O)O)c3c1C=CC(C)(C)O3)OC(C)(C)C=C2	inconclusive: 20 µM [inhibitor, partial curve, poor fit]	–
O=C(Nc1cc(Sc2ccccn2)cc([N+](=O)[O-])c1)c1ccc([N+](=O)[O-])cc1	inconclusive: 3.55 µM [inhibitor, partial curve, poor fit]	–
Cn1c(SSc2ccc(-c3cccnc3)n2C)ccc1-c1cccnc1	inconclusive: 14.1 µM [inhibitor, full curve, poor fit]	–
Cc1ccc2nc(Cl)c(/C=C/C(=O)c3ccco3)cc2c1	active: 17.8 µM	–
Cc1nc2ccc(S(=O)(=O)NC(C(=O)N3CCC(C)CC3)C(C)C)cc2s1 (stereo not given)	–	inactive: -11.4%
N#CC(C#N)=Cc1cn(-c2ncc(C(F)(F)F)cc2Cl)c2ccccc12	inconclusive: 79.4 µM [inhibitor, partial curve]	–
Cc1nc(C(Cl)(Cl)Cl)nc2[nH]ccc(=O)c12	active: 17.8 µM	–
Cn1c(=O)c2sccc2n2c(CCC(=O)NCc3ccc(F)cc3)nnc12	inconclusive: 89.1 µM [inhibitor, single point]	–
COCCN(CC(=O)NCC1CCCO1)C(=O)CCC(=O)Nc1ccccn1 (stereo not given)	active: 35.5 µM	–
Cn1nnnc1SCC(=O)c1cccs1	inconclusive: 89.1 µM [inhibitor, single point]	–

2 records picked at random from the list so far:
SMILES	Potency	max response, negative = inhibition
Cn1c(=O)c2sccc2n2c(CCC(=O)NCc3ccc(F)cc3)nnc12	inconclusive: 89.1 µM [inhibitor, single point]	–
COCCN(CC(=O)NCC1CCCO1)C(=O)CCC(=O)Nc1ccccn1 (stereo not given)	active: 35.5 µM	–

Additional structures follow:

SMILES	Potency	max response, negative = inhibition
COc1cc(C2c3c(oc4cc(C)c(C)cc4c3=O)C(=O)N2CCCN2CCOCC2)ccc1O (stereo not given)	inconclusive: 89.1 µM [inhibitor, partial curve, poor fit]	–
O=C(O)c1cccc(-c2ccc3c(c2)OCO3)c1	inconclusive: 11.2 µM [inhibitor, partial curve, poor fit]	–
CN1CCN(c2ccc(CNS(=O)(=O)c3ccsc3)cc2)CC1	inconclusive: 39.8 µM [inhibitor, partial curve]	–
COc1cccc(/C=C/C(=O)c2cccc([N+](=O)[O-])c2)c1OC	active: 8.91 µM	–
COCc1ccc(C(=O)NCC2(N3CCCCC3)CCCCC2)cc1	inconclusive: 17.8 µM [inhibitor, partial curve, poor fit]	–
Cc1cccc(-n2c(C)n[nH]c2=S)c1C	–	inactive: -20.9%
O=C(CC12CC3CC(CC(C3)C1)C2)NC(=S)Nc1ccc(CN2CCOCC2)cc1	–	inactive: -6.41%
CCCCCn1c(N2CCC(Cc3ccccc3)CC2)nc2c1c(=O)[nH]c(=O)n2C	–	inactive: -15.6%
CCOC(=O)N1CCc2c(sc3c2c(=O)n(-c2ccc(Cl)cc2)c(=O)n3CC(=O)c2ccc(F)cc2)C1	–	inactive: -11.1%
CC(=O)N/N=C(\C)CC(=O)Nc1ccc2c(c1)OCCO2	–	inactive: -3.31%
Cc1ccc(NC(=O)Cn2cc(C=O)c3ccccc32)cc1C	inconclusive: 0.631 µM [inhibitor, full curve, poor fit]	–
CO/N=C(/C(=O)N[C@@H]1C(=O)N2C(C(=O)O)=CCS[C@H]12)c1csc(N)n1	active: 35.5 µM	–
Cc1ccc(-c2csc(C3=C(O)CN(NC(=O)c4ccc([N+](=O)[O-])cc4)C3=N)n2)cc1	–	inactive: -1.25%
CC(C)Oc1ccc(C(=O)Nc2ccccc2N2CCCC2)cc1	–	inactive: -7.71%
COc1ccccc1N1CCN(CCCCN2C(=O)C3CCCCN3C2=O)CC1 (stereo not given)	inconclusive: 50.1 µM [inhibitor, partial curve, poor fit]	–
COc1ccc(C)cc1NC(=O)CN1CCN(c2ccccn2)CC1	inconclusive: 20 µM [inhibitor, single point]	–
COC(=O)c1cn(Cc2cc(OC)ccc2OC)cc(F)c1=O	–	inactive: -5.13%
Cc1cccc(C)c1N(CC(=O)N1CCOCC1)S(C)(=O)=O	inconclusive: 79.4 µM [inhibitor, single point]	–
CO/S(=N\S(=O)(=O)c1ccc(Cl)cc1)c1ccc([N+](=O)[O-])cc1 (stereo not given)	inconclusive: 31.6 µM [inhibitor, partial curve]	–
COc1ccc(C(=O)N/N=C\c2coc3ccccc3c2=O)cc1	inconclusive: 56.2 µM [inhibitor, partial curve, poor fit]	–
Cc1[nH]nc(N=CC2=C(O)CC(c3ccco3)CC2=O)c1-c1ccccc1 (stereo not given)	–	inactive: 4.8% and inactive: 5.24%
O=C1/C(=C/c2ccccc2)CCc2ccc(Cl)nc21	active: 50.1 µM	–
